Results taken from publication PMC7819943, “Rice protein-binding microarrays: a tool to detect cis-acting elements near promoter regions in rice”.
This is one part of the list.

Amino acid sequences for entries named in this document (tags omitted).
UniProt Q0JBA9, entry or part of it: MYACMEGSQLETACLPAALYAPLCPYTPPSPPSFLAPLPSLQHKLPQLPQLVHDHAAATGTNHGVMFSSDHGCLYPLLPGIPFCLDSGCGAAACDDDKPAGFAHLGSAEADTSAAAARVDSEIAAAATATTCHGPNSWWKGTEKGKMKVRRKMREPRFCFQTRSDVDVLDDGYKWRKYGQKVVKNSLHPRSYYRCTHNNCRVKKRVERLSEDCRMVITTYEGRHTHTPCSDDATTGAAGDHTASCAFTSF

The sequences below were run against OsWRKY34 (Oryza sativa, UniProt Q0JBA9 1-250) (assay: protein-binding microarray (RPBM); PBS, 2% BSA, 51.3 ng/ul salmon testes DNA, 50 uM zinc acetate, 200 nM TF, 25 C, 1 h; high values mean tight binding). Details: protein: recombinant; tags: N-terminal polyhistidine and DsRed monomer fusion (pET32a); label: CyDye5-dUTP incorporated in the synthesized complementary strand; 3' TTTTT single-stranded linker to array surface; dsDNA, one strand shown.
Method in brief: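 A custom Agilent array was converted to double-stranded form by primer extension with Cy5-dUTP and blocked with 2% BSA. Protein at 200 nM in PBS with 2% BSA, salmon testes DNA and 50 µM zinc acetate was applied for 1 h at 25 °C, followed by washing. The proteins were polyhistidine–DsRed N-terminal fusions of transcription factors, expressed in E. coli BL21-CodonPlus and Ni–NTA-purified. The binding signal is per-feature fluorescence intensity (arbitrary units) from an Axon 4000B scanner.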
For “TTTTATAGTTTAGCTACCTCTTCTCCATTTTCTTTAATTTCGGAGTCACCTAGTGCAG”, the binding signal was 9920 fluorescence intensity (a.u.). In the case of “GCCACCATTCCCATCTAGCGGCATGCATCTCCCGCTCCTCCGGAGTCACCTAGTGCAG”, the binding signal is reported as 8220 fluorescence intensity (a.u.). With “GCCGTTGCCATAGTTCCCGTTCATCCCCTGATCGTCATCACGGAGTCACCTAGTGCAG” the binding signal was 9680 fluorescence intensity (a.u.). With “TATTAAGTTCCTGTACTGGAACGCACCCACTTATCAATTTCGGAGTCACCTAGTGCAG” the binding signal was 8210 fluorescence intensity (a.u.). “GAGGAGAGTGGTGGAGGAAGAATAGAAATGACACTTACATCGGAGTCACCTAGTGCAG” was tested, and the binding signal was 8180 fluorescence intensity (a.u.). In the case of “TCTTTTTGTTTGACTTTTTTAAAACCACAGGTCACCCTTACGGAGTCACCTAGTGCAG”, the binding signal is reported as 14800 fluorescence intensity (a.u.). For “GCCCATCTCTACGCCAATCCAACGTGCACGCCACCATGTGCGGAGTCACCTAGTGCAG”, the binding signal was 8870 fluorescence intensity (a.u.). “CTGGGATCTCCTCCTCTTCTACTACTCTTCTTCCATCGCCCGGAGTCACCTAGTGCAG” was tested, and the binding signal was 8310 fluorescence intensity (a.u.). In the case of “TGACTAACCTACATTGCTTGCTTCTGCTCCTCACTGCGACCGGAGTCACCTAGTGCAG”, the binding signal is reported as 8850 fluorescence intensity (a.u.). In the case of “CGCGTGTCTCGCTCCGTCCTCGCGCGCTCGACCCCTCCGCCGGAGTCACCTAGTGCAG”, the binding signal is reported as 8660 fluorescence intensity (a.u.). In the case of “TGGCCATCACTCATCAGTCATCACCAACGGCGCCACACATCGGAGTCACCTAGTGCAG”, the binding signal is reported as 9100 fluorescence intensity (a.u.). With “TTCTTACTGGATGGTGTACACTACTTACCCTTTTTAATGCCGGAGTCACCTAGTGCAG” the binding signal was 8650 fluorescence intensity (a.u.). With “TCTAGTCTCGATTGCTTTTCTGCTGCTTCGCCCTTGCTGCCGGAGTCACCTAGTGCAG” the binding signal was 8410 fluorescence intensity (a.u.). With “AACCTCTTACTTAATTGTATCGTTTCGGCTTTAATATTTGCGGAGTCACCTAGTGCAG” the binding signal was 10200 fluorescence intensity (a.u.). “ACGTCCTACTTGAAAGTGTGATGCCTAATAGTGTTTAGACCGGAGTCACCTAGTGCAG” was tested, and the binding signal was 8530 fluorescence intensity (a.u.). In the case of “CCATGCACTCCGTAAATTTTTTTCTGTTAACGCGAGGCCACGGAGTCACCTAGTGCAG”, the binding signal is reported as 8930 fluorescence intensity (a.u.). With “GCATGTTCCTCAAATGCAGCATCTGGGTCACTATAATGTTCGGAGTCACCTAGTGCAG” the binding signal was 9310 fluorescence intensity (a.u.). “GTGGTTTGTTCGAATTCTGGATTCTTCGGTTCTTGCTAATCGGAGTCACCTAGTGCAG” was tested, and the binding signal was 12100 fluorescence intensity (a.u.). With “ACCATCCGACTGGCTAAATTCCCAACCTCATTGACCAAAGCGGAGTCACCTAGTGCAG” the binding signal was 8270 fluorescence intensity (a.u.). For “ATTTAGATATTTTTTCTATGGATCCTTTTGTGTTGACATACGGAGTCACCTAGTGCAG”, the binding signal was 8400 fluorescence intensity (a.u.). “ATGTTCTGCTGCCAGTTTATTTTATGTAATTTCTTTTTGCCGGAGTCACCTAGTGCAG” was tested, and the binding signal was 9300 fluorescence intensity (a.u.). In the case of “GGGGTGGGAGGGGAGGCAAGGTAGGCAACGCCAAGAACGGCGGAGTCACCTAGTGCAG”, the binding signal is reported as 11400 fluorescence intensity (a.u.). “ACCCGATTCCCACACTAGCCCACAGCGTATAATCACATTTCGGAGTCACCTAGTGCAG” was tested, and the binding signal was 10100 fluorescence intensity (a.u.). In the case of “ATTGTATGCTATTTTTTGTTTTGTCATGAGTTAACTTTATCGGAGTCACCTAGTGCAG”, the binding signal is reported as 10700 fluorescence intensity (a.u.). For “GGGCGCCGGTATGCTTCTTCCATTCCACCTATGTGTTTCTCGGAGTCACCTAGTGCAG”, the binding signal was 9490 fluorescence intensity (a.u.). For “TTAACTTCATGACCACTCCGCTTACTAAGAATGCTTACTTCGGAGTCACCTAGTGCAG”, the binding signal was 8040 fluorescence intensity (a.u.). “GGAAGAGCCGAACCAGCAACACGACATCACACGCCCATCTCGGAGTCACCTAGTGCAG” was tested, and the binding signal was 8950 fluorescence intensity (a.u.). “TTCTCTTGTCCTCAACCCCAAAACCCTCACCCCACAACTCCGGAGTCACCTAGTGCAG” was tested, and the binding signal was 8460 fluorescence intensity (a.u.). In the case of “TGTTTTGCAATTCTCTGTTTTACACTTTCATTTTTATCAACGGAGTCACCTAGTGCAG”, the binding signal is reported as 10600 fluorescence intensity (a.u.). For “TCCTGTGCCTCTCTCATGGTGTGGGTGTCTGTGTCTTTGACGGAGTCACCTAGTGCAG”, the binding signal was 9040 fluorescence intensity (a.u.). For “GATCCGCTCAGTACACCGTAATTAATTGCCACATTTTAAACGGAGTCACCTAGTGCAG”, the binding signal was 9140 fluorescence intensity (a.u.). With “ATAGGGCGGGTACCATTCTTATGGTTTCAAATTAACTACACGGAGTCACCTAGTGCAG” the binding signal was 10700 fluorescence intensity (a.u.). For “CTGTTTTCTTCCCACTTAGCTTAAATATTTTAGTATGAGACGGAGTCACCTAGTGCAG”, the binding signal was 9990 fluorescence intensity (a.u.). For “TATTTTCATACTACTTTGGTACTTTTGCTTTTTAGTACATCGGAGTCACCTAGTGCAG”, the binding signal was 9450 fluorescence intensity (a.u.). In the case of “CGGCCTCCACCACCGCCGTCCCAATGCCGTCGCCACCCACCGGAGTCACCTAGTGCAG”, the binding signal is reported as 9000 fluorescence intensity (a.u.). For “AGCTTTCTTGACTTGTATGAAAAACATATCTGATCATCTCCGGAGTCACCTAGTGCAG”, the binding signal was 8550 fluorescence intensity (a.u.). In the case of “AAAAATAAAAAATAATTATATCGAGAGTAAATATAAAATGCGGAGTCACCTAGTGCAG”, the binding signal is reported as 10700 fluorescence intensity (a.u.). For “CGGTTTTGTAAATTGAGGGGTGCCATATATCTGGTTTCATCGGAGTCACCTAGTGCAG”, the binding signal was 10800 fluorescence intensity (a.u.). In the case of “AGGTGTTGTGTGCTGTGGAAGTTTCTTGGGAGGGCAAGCTCGGAGTCACCTAGTGCAG”, the binding signal is reported as 11500 fluorescence intensity (a.u.). “TCTTCACCTATATGTATATTGATTTGCACTACTCTACACACGGAGTCACCTAGTGCAG” was tested, and the binding signal was 8040 fluorescence intensity (a.u.). In the case of “TCTTCTCTCGTCAAATTAACAGCCTATCGATGATCGATTACGGAGTCACCTAGTGCAG”, the binding signal is reported as 9400 fluorescence intensity (a.u.). For “GGTTGGTCGCGTCGCGCTGCACAGCACCCGGTCTTTGAAACGGAGTCACCTAGTGCAG”, the binding signal was 11400 fluorescence intensity (a.u.).
